Test results from the supplement of paper PMC10849652.
The list shows a part of the results.

Sequences of proteins named here, by UniProt entry; tags and fusion partners are left off. A change or cut given only in a name is not applied to a line headed by its entry.
UniProt O14638, whole entry, looked up: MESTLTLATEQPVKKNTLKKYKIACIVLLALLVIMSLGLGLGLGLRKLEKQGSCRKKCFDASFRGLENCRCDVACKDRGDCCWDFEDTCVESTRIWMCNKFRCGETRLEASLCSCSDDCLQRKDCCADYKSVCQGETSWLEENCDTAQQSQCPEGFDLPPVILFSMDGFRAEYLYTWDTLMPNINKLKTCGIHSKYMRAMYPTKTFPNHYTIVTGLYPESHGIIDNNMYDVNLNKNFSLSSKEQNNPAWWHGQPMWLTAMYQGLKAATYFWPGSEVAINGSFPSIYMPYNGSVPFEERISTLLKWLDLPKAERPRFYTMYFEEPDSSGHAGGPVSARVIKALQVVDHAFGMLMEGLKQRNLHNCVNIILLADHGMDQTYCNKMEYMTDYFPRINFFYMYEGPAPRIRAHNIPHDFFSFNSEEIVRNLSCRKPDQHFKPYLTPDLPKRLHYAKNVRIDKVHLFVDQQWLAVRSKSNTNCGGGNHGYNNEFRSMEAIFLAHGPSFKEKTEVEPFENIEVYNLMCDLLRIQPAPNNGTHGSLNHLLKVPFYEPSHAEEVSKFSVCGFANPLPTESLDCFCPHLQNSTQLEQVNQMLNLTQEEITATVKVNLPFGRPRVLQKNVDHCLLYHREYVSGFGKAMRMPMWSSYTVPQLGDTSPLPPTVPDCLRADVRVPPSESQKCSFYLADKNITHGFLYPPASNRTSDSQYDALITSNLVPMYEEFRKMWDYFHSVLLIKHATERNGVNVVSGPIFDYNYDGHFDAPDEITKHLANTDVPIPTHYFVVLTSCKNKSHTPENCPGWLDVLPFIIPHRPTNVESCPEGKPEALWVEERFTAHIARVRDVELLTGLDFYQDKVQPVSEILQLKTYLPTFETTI
UniProt Q6IA86: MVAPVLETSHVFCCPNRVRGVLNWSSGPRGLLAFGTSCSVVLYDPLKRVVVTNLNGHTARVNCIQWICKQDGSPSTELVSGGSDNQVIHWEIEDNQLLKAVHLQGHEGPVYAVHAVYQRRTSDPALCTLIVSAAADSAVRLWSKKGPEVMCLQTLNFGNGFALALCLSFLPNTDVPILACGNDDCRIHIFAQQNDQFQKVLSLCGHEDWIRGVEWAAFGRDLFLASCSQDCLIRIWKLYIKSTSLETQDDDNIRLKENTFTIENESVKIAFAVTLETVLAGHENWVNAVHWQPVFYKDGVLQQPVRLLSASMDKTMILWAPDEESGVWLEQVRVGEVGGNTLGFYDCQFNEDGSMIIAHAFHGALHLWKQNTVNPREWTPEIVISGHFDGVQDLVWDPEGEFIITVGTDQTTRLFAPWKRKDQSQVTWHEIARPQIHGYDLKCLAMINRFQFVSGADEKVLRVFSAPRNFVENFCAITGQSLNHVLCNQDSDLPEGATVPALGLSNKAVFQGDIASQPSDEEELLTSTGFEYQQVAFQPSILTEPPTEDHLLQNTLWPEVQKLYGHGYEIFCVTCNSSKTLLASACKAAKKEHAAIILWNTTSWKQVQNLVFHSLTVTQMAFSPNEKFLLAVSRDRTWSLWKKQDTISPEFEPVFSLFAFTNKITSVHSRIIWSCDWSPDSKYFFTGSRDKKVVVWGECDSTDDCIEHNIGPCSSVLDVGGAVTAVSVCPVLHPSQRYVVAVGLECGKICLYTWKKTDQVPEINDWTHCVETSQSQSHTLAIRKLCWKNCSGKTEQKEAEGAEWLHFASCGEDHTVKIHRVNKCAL
UniProt Q9BY44: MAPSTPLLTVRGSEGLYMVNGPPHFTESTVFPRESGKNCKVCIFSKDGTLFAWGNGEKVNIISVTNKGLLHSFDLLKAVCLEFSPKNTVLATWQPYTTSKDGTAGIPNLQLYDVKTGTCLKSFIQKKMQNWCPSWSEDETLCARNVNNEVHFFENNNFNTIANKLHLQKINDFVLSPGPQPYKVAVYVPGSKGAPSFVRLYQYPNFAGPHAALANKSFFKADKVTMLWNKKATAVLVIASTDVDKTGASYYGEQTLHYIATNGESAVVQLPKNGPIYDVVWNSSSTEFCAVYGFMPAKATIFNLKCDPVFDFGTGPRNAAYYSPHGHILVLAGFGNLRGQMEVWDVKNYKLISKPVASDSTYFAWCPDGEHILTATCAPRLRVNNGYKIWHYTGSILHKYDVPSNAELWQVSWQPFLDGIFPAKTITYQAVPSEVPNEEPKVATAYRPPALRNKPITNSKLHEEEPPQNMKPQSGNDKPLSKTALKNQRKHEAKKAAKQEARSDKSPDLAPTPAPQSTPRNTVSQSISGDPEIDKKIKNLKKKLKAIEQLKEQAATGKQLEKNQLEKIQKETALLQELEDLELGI
UniProt Q8N766: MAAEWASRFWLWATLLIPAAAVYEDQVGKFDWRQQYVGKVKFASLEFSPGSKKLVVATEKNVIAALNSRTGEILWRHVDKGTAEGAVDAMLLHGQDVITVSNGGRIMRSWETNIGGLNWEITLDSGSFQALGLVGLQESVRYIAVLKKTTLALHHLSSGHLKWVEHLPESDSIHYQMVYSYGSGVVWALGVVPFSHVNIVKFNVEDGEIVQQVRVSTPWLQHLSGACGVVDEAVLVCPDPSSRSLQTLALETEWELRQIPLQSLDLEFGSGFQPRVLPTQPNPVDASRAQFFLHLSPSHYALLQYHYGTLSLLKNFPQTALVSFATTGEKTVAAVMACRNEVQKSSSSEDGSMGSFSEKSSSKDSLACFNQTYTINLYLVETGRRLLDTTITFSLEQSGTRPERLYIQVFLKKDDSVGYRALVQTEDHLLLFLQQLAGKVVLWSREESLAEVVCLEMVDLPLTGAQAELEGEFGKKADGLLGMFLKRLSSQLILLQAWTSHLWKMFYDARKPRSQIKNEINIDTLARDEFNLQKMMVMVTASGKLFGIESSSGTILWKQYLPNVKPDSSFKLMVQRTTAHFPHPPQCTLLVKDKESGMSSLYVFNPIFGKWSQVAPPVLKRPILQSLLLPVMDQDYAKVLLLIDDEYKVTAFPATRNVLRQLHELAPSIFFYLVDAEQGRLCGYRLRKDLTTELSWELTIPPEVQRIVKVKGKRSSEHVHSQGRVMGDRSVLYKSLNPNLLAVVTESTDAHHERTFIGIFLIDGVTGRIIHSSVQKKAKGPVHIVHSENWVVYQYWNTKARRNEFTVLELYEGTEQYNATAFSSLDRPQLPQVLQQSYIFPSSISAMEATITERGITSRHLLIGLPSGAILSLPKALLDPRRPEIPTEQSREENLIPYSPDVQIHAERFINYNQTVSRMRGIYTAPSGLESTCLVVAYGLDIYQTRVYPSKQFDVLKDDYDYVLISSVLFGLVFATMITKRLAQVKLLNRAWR
UniProt Q9H4M9: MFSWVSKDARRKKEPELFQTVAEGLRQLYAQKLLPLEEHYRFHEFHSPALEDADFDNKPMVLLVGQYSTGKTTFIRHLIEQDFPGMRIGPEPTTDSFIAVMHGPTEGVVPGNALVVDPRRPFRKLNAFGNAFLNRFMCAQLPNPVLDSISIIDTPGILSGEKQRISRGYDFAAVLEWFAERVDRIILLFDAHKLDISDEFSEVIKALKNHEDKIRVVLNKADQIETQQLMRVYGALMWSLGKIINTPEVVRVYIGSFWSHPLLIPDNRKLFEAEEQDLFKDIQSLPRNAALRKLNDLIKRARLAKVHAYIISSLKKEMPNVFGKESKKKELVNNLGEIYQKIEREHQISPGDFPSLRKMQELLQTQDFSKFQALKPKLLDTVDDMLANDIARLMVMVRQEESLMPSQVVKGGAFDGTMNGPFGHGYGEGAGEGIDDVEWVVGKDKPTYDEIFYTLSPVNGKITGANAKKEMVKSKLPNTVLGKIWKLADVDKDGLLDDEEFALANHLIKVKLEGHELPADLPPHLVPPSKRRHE
UniProt P41214: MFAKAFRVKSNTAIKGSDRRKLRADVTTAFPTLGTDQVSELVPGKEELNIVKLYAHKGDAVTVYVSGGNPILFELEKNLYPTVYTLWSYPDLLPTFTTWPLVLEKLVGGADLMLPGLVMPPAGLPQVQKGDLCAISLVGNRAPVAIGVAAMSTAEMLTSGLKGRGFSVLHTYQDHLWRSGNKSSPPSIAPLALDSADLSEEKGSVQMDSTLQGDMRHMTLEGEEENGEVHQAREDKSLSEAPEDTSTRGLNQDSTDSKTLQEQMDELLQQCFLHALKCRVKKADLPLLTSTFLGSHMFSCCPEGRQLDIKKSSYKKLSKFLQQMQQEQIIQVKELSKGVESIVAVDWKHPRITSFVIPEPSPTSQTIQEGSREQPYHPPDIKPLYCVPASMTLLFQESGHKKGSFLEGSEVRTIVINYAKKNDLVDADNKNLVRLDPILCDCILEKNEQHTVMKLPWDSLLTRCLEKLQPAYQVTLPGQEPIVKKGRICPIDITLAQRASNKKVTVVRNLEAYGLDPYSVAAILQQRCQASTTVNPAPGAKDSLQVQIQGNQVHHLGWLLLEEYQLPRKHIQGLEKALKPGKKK
UniProt P29692: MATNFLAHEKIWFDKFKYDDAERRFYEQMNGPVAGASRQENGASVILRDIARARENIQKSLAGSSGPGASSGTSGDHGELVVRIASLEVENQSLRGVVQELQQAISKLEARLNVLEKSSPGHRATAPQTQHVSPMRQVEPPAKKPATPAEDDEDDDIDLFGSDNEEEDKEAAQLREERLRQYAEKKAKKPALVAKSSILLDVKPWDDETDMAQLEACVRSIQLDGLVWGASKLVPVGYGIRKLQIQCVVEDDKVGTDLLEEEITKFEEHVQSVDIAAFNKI
UniProt P41091, whole entry, looked up: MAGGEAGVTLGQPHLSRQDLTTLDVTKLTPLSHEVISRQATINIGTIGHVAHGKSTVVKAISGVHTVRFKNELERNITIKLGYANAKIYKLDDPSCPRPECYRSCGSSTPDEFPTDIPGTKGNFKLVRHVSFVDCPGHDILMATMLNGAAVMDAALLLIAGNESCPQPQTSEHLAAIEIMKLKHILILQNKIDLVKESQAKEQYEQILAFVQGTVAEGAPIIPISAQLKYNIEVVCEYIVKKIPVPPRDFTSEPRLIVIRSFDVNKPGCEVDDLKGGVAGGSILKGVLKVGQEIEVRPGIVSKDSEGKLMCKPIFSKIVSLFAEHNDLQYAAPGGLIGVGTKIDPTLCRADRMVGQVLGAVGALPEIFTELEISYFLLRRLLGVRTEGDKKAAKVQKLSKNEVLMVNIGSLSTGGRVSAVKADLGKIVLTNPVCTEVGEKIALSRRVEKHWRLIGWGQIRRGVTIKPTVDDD
UniProt P50402: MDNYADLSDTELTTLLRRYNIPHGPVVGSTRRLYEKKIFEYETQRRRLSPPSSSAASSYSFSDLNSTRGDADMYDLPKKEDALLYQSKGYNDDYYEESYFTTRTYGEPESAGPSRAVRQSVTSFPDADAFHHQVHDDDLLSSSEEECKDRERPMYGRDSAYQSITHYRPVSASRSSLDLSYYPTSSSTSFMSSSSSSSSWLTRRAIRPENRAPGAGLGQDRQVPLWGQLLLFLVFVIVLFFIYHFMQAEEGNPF
UniProt P98172: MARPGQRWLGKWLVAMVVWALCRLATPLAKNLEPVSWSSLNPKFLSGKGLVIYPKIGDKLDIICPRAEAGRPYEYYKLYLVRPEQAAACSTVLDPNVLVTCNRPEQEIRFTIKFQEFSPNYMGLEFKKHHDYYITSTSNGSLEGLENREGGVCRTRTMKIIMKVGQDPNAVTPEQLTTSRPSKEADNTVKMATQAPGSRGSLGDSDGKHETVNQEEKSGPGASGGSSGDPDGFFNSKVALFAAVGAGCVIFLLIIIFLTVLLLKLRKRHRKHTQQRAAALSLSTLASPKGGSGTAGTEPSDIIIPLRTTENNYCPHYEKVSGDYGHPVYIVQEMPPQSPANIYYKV
UniProt P24534: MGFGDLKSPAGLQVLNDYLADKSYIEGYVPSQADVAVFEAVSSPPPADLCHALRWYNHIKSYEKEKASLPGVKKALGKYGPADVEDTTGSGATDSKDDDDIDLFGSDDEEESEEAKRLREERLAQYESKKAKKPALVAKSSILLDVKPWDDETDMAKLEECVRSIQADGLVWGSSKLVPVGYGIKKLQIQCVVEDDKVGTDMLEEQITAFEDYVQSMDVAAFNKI
UniProt Q15717, whole entry, looked up: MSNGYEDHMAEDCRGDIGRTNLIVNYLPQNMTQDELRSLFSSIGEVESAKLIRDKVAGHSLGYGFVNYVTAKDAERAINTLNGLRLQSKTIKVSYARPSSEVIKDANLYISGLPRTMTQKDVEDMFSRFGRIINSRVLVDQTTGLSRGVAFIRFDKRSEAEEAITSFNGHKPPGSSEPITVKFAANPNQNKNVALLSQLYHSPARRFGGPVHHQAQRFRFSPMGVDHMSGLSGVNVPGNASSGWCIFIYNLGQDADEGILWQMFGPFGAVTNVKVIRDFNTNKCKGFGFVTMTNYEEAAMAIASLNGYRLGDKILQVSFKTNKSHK

Tests used:
Test in all cases: log2 fold change, soluble protein after heating vs DMSO (PISA); higher = thermal stabilisation; K562 cells, 10 uM, 30 min; active = over 0.2 and 3.5 SD of the protein, either way, in both replicates (recomputed)
[1] = compound: NC(=O)Nc1cc(-c2cccc(F)c2)sc1C(=O)N[C@H]1CCCNC1
How it was run: (§1)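 Values are thermal stability changes relative to control samples and are taken from duplicates. They are stated as log2 fold changes. Before quantification by TMTpro 16plex LC-MS/MS with equalised channel sums, K562 cells at 2×10^6 cells/mL were treated with 10 μM compound for 30 min, heated in aliquots for 3 min across 48°C-58°C, pooled, extracted in PBS with 0.5% NP-40 at 4°C, and centrifuged at 21,000xg for 90 min to give the soluble supernatant.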

[2] = compound: NC(=O)c1cnc(N[C@@H]2CCCC[C@@H]2N)nc1Nc1cccc(-n2nccn2)c1
How it was run: as §1

[3] = compound: NC1(c2ccc(-c3nc4ccn5c(=O)[nH]nc5c4cc3-c3ccccc3)cc2)CCC1
How it was run: as §1

[4] = compound: NCC(=O)Nc1ccc(-n2nc(C(F)(F)F)cc2-c2ccc3c(ccc4ccccc43)c2)cc1
How it was run: as §1

entinostat = compound: Nc1ccccc1NC(=O)c1ccc(CNC(=O)OCc2cccnc2)cc1 [entinostat]
How it was run: as §1

vorinostat = compound: O=C(CCCCCCC(=O)Nc1ccccc1)NO [vorinostat]
How it was run: as §1

citarinostat = compound: O=C(CCCCCCNC(=O)c1cnc(N(c2ccccc2)c2ccccc2Cl)nc1)NO [citarinostat]
How it was run: as §1

silmitasertib = compound: O=C(O)c1ccc2c(c1)nc(Nc1cccc(Cl)c1)c1ccncc12 [silmitasertib]
How it was run: as §1

[5] = compound: O=C1NC(=O)C(c2cnc3ccccn23)=C1c1cn2c3c(cc(F)cc13)CN(C(=O)N1CCCCC1)CC2
How it was run: as §1

[6] = compound: c1cc(OCCN2CCCCC2)cc(-c2n[nH]c3ccc(-c4nnc[nH]4)cc23)c1
How it was run: as §1

Measured: log2 fold change

EIF4EBP2 (UniProt Q13542)
inactive: [1] -0.109 | [2] 0.223 | [3] 0.025 | [4] -0.126 | entinostat 0.187 | vorinostat -0.059 | citarinostat 0.02 | silmitasertib -0.067 | [5] -0.071 | [6] -0.09

EIF1AX (UniProt P47813)
inactive: [1] 0.012 | [2] 0.01 | [3] 0.019 | [4] 0.012 | entinostat 0.033 | vorinostat 0.023 | citarinostat -0.002 | silmitasertib -0.028 | [5] 0.017 | [6] -0.009

ENPP3 (UniProt O14638)
inactive: [1] -0.121 | [2] -0.067 | [3] -0.166 | [4] -0.136 | entinostat -0.114 | vorinostat 0.002 | citarinostat -0.183 | silmitasertib 0.245 | [5] -0.089 | [6] -0.027

EML4 (UniProt Q9HC35)
inactive: [1] 0.011 | [2] -0.017 | [3] -0.071 | [4] -0.01 | entinostat 0.03 | vorinostat 0.06 | citarinostat 0 | silmitasertib 0.021 | [5] 0.149 | [6] -0.071

ELP2 isoform 6 (UniProt Q6IA86)
inactive: [1] -0.044 | [2] -0.038 | [3] -0.049 | [4] -0.029 | entinostat 0.015 | vorinostat 0 | citarinostat 0.02 | silmitasertib 0.02 | [5] -0.075 | [6] -0.036

EIF2S1 (UniProt P05198)
inactive: [1] -0.005 | [2] 0.04 | [3] 0.089 | [4] 0.012 | entinostat -0.02 | vorinostat 0.031 | citarinostat -0.016 | silmitasertib 0.012 | [5] 0.084 | [6] -0.02

EIF2A (UniProt Q9BY44)
inactive: [1] 0.009 | [2] 0.017 | [3] -0.008 | [4] 0.009 | entinostat -0.013 | vorinostat 0.029 | citarinostat 0.01 | silmitasertib 0.025 | [5] 0.043 | [6] -0.084

EMC1 (UniProt Q8N766)
inactive: [1] 0.012 | [2] -0.002 | [3] -0.094 | [4] 0.01 | entinostat 0.009 | vorinostat -0.009 | citarinostat 0.056 | silmitasertib 0.032 | [5] 0.03 | [6] -0.035

EMC7 (UniProt Q9NPA0)
inactive: [1] -0.019 | [2] -0.045 | [3] -0.074 | [4] -0.04 | entinostat -0.007 | vorinostat -0.038 | citarinostat -0.02 | silmitasertib 0.029 | [5] -0.031 | [6] -0.1

EHBP1L1 (UniProt Q8N3D4)
inactive: [1] -0.091 | [2] -0.04 | [3] -0.039 | [4] -0.039 | entinostat 0 | vorinostat 0.054 | citarinostat 0.041 | silmitasertib 0.015 | [5] -0.043 | [6] -0.101

EHD1 (UniProt Q9H4M9)
inactive: [1] -0.012 | [2] -0.005 | [3] -0.113 | [4] -0.011 | entinostat 0.018 | vorinostat 0.046 | citarinostat 0.009 | silmitasertib -0.033 | [5] -0.056 | [6] -0.012

EIF2D (UniProt P41214)
inactive: [1] -0.151 | [2] -0.199 | [3] -0.153 | [4] -0.103 | entinostat 0.095 | vorinostat 0.147 | citarinostat 0.07 | silmitasertib 0.023 | [5] 0.138 | [6] -0.047

EIF1 (UniProt P41567)
inactive: [1] -0.012 | [2] 0.049 | [3] 0.103 | [4] -0.006 | entinostat -0.002 | vorinostat -0.086 | citarinostat -0.044 | silmitasertib 0.005 | [5] -0.077 | [6] -0.107

EEF1D isoform 2 (UniProt P29692)
inactive: [1] -0.02 | [2] -0.06 | [3] -0.034 | [4] -0.105 | entinostat 0.018 | vorinostat -0.02 | citarinostat 0.017 | silmitasertib 0.108 | [5] -0.001 | [6] -0.067

EEF1A2 (UniProt Q05639)
inactive: [1] -0.023 | [2] -0.06 | [3] 0.021 | [4] -0.023 | entinostat -0.011 | vorinostat 0.022 | citarinostat 0.03 | silmitasertib -0.07 | [5] -0.048 | [6] -0.043

EIF2S3 (UniProt P41091)
inactive: [1] 0.034 | [2] 0.006 | [3] 0.163 | [4] 0.025 | entinostat -0.001 | vorinostat 0 | citarinostat -0.044 | silmitasertib -0.001 | [5] 0.066 | [6] -0.154

EHMT2 (UniProt Q96KQ7)
inactive: [1] -0.023 | [2] -0.098 | [3] -0.087 | [4] -0.004 | entinostat -0.044 | vorinostat 0.07 | citarinostat -0.101 | silmitasertib 0.001 | [5] 0.091 | [6] -0.072

EIF4H (UniProt Q15056)
inactive: [1] -0.004 | [2] 0.004 | [3] 0.034 | [4] 0.009 | entinostat 0.013 | vorinostat 0.006 | citarinostat -0.009 | silmitasertib -0.028 | [5] -0.023 | [6] 0.088

EIF2AK4 (UniProt Q9P2K8)
inactive: [1] -0.031 | [2] 0.015 | [3] -0.09 | [4] -0.095 | entinostat 0.049 | vorinostat 0.193 | citarinostat 0.199 | silmitasertib 0.16 | [5] 0.001 | [6] -0.058

ELOVL5 isoform 2 (UniProt Q9NYP7)
inactive: [1] -0.07 | [2] 0.001 | [3] -0.194 | [4] -0.065 | entinostat 0.056 | vorinostat 0.062 | citarinostat 0 | silmitasertib 0.098 | [5] 0.035 | [6] -0.158

EIF2B2 (UniProt P49770)
inactive: [1] -0.017 | [2] 0.004 | [3] -0.002 | [4] 0.024 | entinostat -0.034 | vorinostat 0.027 | citarinostat 0.032 | silmitasertib 0.016 | [5] 0.02 | [6] -0.064

EFHD2 (UniProt Q96C19)
inactive: [1] -0.049 | [2] -0.093 | [3] -0.135 | [4] -0.138 | entinostat 0.033 | vorinostat 0.021 | citarinostat 0.039 | silmitasertib 0.05 | [5] -0.032 | [6] 0.02

EMD (UniProt P50402)
inactive: [1] -0.012 | [2] -0.064 | [3] -0.068 | [4] -0.041 | entinostat -0.031 | vorinostat -0.017 | citarinostat -0.076 | silmitasertib 0.054 | [5] -0.084 | [6] -0.141

ELMOD2 (UniProt Q8IZ81)
inactive: [1] 0.004 | [2] -0.041 | [3] -0.071 | [4] -0.007 | entinostat 0.021 | vorinostat -0.031 | citarinostat 0.052 | silmitasertib 0.007 | [5] -0.051 | [6] -0.017

EFNB1 (UniProt P98172)
inactive: [1] 0.047 | [2] 0.093 | [3] -0.05 | [4] 0.054 | entinostat 0.01 | vorinostat -0.049 | citarinostat 0.073 | silmitasertib -0.051 | [5] 0.106 | [6] 0.171

Copied from the entries so far (nine entries):
EIF2S1 (UniProt P05198)
inactive: [1] -0.005 | [2] 0.04 | [3] 0.089 | [4] 0.012 | entinostat -0.02 | vorinostat 0.031 | citarinostat -0.016 | silmitasertib 0.012 | [5] 0.084 | [6] -0.02

EIF2A (UniProt Q9BY44)
inactive: [1] 0.009 | [2] 0.017 | [3] -0.008 | [4] 0.009 | entinostat -0.013 | vorinostat 0.029 | citarinostat 0.01 | silmitasertib 0.025 | [5] 0.043 | [6] -0.084

EMC1 (UniProt Q8N766)
inactive: [1] 0.012 | [2] -0.002 | [3] -0.094 | [4] 0.01 | entinostat 0.009 | vorinostat -0.009 | citarinostat 0.056 | silmitasertib 0.032 | [5] 0.03 | [6] -0.035

EMC7 (UniProt Q9NPA0)
inactive: [1] -0.019 | [2] -0.045 | [3] -0.074 | [4] -0.04 | entinostat -0.007 | vorinostat -0.038 | citarinostat -0.02 | silmitasertib 0.029 | [5] -0.031 | [6] -0.1

EHBP1L1 (UniProt Q8N3D4)
inactive: [1] -0.091 | [2] -0.04 | [3] -0.039 | [4] -0.039 | entinostat 0 | vorinostat 0.054 | citarinostat 0.041 | silmitasertib 0.015 | [5] -0.043 | [6] -0.101

EHD1 (UniProt Q9H4M9)
inactive: [1] -0.012 | [2] -0.005 | [3] -0.113 | [4] -0.011 | entinostat 0.018 | vorinostat 0.046 | citarinostat 0.009 | silmitasertib -0.033 | [5] -0.056 | [6] -0.012

EIF2D (UniProt P41214)
inactive: [1] -0.151 | [2] -0.199 | [3] -0.153 | [4] -0.103 | entinostat 0.095 | vorinostat 0.147 | citarinostat 0.07 | silmitasertib 0.023 | [5] 0.138 | [6] -0.047

EIF1 (UniProt P41567)
inactive: [1] -0.012 | [2] 0.049 | [3] 0.103 | [4] -0.006 | entinostat -0.002 | vorinostat -0.086 | citarinostat -0.044 | silmitasertib 0.005 | [5] -0.077 | [6] -0.107

EEF1D isoform 2 (UniProt P29692)
inactive: [1] -0.02 | [2] -0.06 | [3] -0.034 | [4] -0.105 | entinostat 0.018 | vorinostat -0.02 | citarinostat 0.017 | silmitasertib 0.108 | [5] -0.001 | [6] -0.067

Later entries

EEF1B2 (UniProt P24534)
inactive: [1] 0.012 | [2] -0.112 | [3] -0.035 | [4] -0.09 | entinostat 0.04 | vorinostat 0.02 | citarinostat 0.004 | silmitasertib 0.027 | [5] -0.007 | [6] -0.035

EHD4 (UniProt Q9H223)
inactive: [1] -0.022 | [2] 0.007 | [3] -0.073 | [4] -0.048 | entinostat 0.002 | vorinostat 0.04 | citarinostat 0.024 | silmitasertib 0.02 | [5] -0.042 | [6] -0.02

ELAVL1 isoform 2 (UniProt Q15717)
inactive: [1] 0 | [2] 0.024 | [3] 0.323 | [4] 0.044 | entinostat 0.03 | vorinostat 0.02 | citarinostat -0.101 | silmitasertib 0.274 | [5] 0.253 | [6] -0.099

EHD2 (UniProt Q9NZN4)
inactive: [1] -0.034 | [2] -0.048 | [3] -0.072 | [4] -0.096 | entinostat 0.033 | vorinostat 0.055 | citarinostat 0.048 | silmitasertib 0.012 | [5] -0.04 | [6] -0.015
